Measurements reported in PubChem BioAssay AID1053208 (Peter MacCallum Cancer Centre, 2014)

Screen: 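Synthetic lethal interactions between gene loss and doxorubicin in osteosarcoma cells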 (primary screen)
Cell system: mouse osteosarcoma cells, early-passage culture from an engineered mouse model of fibroblastic bone tumour
Reagents: siRNA pool against mouse genes, 40 nM
Duration: about 120 h (48 h before drug, then 72 h with drug)
Challenge: doxorubicin 100 nM for 72 h, roughly 30-40% inhibitory dose
Detection: 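Luminescent ATP signal taken as viability with or without 100 nM doxorubicin for 72 h; mean of two wells set against non-targeting siRNA and turned into robust z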
Scale: viability z-score with doxorubicin and doxorubicin viability vs non-targeting: higher = more viable cells under doxorubicin; viability z-score without drug: higher = more viable cells with knock-down alone; z-score of drug to no-drug ratio: higher = less drug sensitisation by knock-down
Call rule: 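Called active if knock-down leaves viability unchanged without drug (z within -2 to 2) but lowers it with doxorubicin (z at or under -2)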
The deposit covers about 17,000 reagents; shown is an unselected part. 788 of all reagents (4.7%) count as active. 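Calls rest on z-score classes alone; an extra cut-off of viability at most 70% of control was not applied to them.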

gene	combined z-score class	viability z-score with doxorubicin	viability z-score without drug	z-score of drug to no-drug ratio	doxorubicin viability vs non-targeting	outcome
Ddx50	no change with or without drug	-0.22	-0.34	0.11	0.92	inactive
Etv4	no change with or without drug	0.9	1.18	0.22	1.02	inactive
Hdac8	no change with or without drug	0.67	-0.84	1.46	1	inactive
Ank2	no change with or without drug	0.45	-0.84	1.24	0.98	inactive
9530009G21Rik	no change with or without drug	-0.67	0.84	-1.12	0.88	inactive
Sumo3	no change with or without drug	-0.67	-0.51	-0.22	0.88	inactive
Grpel1	no change with or without drug	-1.35	-1.18	-0.56	0.82	inactive
4933405O20Rik	no change with or without drug	-0.45	1.52	-1.24	0.9	inactive
Elavl3	high cell count without drug only	-0.67	2.36	-1.91	0.88	inactive
Fkbp1b	no change with or without drug	1.12	0.84	0.67	1.04	inactive
Ccr2	no change with or without drug	0.11	-1.18	1.12	0.95	inactive
Brip1	no change with or without drug	1.8	0.34	1.69	1.1	inactive
Srp9	no change with or without drug	-1.57	-0.17	-1.46	0.8	inactive
Zfpl1	no change with or without drug	1.8	1.85	0.67	1.1	inactive
Gpr55	no change with or without drug	-0.45	-0.51	0	0.9	inactive
Ptgs1	no change with or without drug	0.79	0.84	0.34	1.01	inactive
Prr9	no change with or without drug	-0.45	0.51	-0.67	0.9	inactive
Prkca	no change with or without drug	1.57	1.18	0.9	1.08	inactive
Hsph1	no change with or without drug	-0.22	0.17	-0.22	0.92	inactive
Dbndd2	no change with or without drug	-1.8	1.01	-2.36	0.78	inactive
